This note sets out measurements from PMC8635308, “Neuropilin 1 regulates bone marrow vascular regeneration and hematopoietic reconstitution” (Nature Communications, 2021).

Test [1] concerns the target T1, C-terminal His tagged mouse NRP1 (5994-N1, R&D systems) (mouse) (UniProt P97333).
T1 sequence: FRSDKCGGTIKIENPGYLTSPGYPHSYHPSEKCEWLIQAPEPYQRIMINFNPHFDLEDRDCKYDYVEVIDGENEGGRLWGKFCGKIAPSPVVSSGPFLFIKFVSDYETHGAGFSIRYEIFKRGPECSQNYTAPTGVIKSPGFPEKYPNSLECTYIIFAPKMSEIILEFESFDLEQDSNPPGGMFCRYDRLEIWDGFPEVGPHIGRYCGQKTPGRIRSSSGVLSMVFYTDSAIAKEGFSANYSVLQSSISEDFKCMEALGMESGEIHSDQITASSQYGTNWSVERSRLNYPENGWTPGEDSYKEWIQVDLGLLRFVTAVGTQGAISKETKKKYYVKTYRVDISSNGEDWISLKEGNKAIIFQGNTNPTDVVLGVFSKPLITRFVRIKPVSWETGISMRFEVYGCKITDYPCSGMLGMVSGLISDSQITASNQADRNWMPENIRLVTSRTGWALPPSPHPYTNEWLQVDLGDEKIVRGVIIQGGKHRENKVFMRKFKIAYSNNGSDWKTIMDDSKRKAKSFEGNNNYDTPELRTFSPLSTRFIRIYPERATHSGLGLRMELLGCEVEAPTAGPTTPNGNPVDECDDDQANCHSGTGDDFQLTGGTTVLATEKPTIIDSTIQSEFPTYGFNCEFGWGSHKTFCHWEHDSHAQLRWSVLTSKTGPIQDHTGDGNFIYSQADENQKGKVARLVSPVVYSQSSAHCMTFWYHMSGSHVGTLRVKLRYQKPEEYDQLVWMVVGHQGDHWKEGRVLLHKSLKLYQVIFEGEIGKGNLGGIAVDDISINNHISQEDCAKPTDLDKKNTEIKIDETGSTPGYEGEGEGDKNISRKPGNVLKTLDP
As to the kind of experiment: ELISA; sandwich ELISA; 6x His-tag microtiter plates coated with C-terminal His tagged mouse NRP1 at 50 ng/ml, 4 °C overnight; blocked with 1% BSA in PBS; SEMA3A Fc added at 0, 1, 2, 4, 8, 16, 32, 128 ng/ml for 2 h at RT; detected with HRP-conjugated SEMA3A antibody, read at 600 nm; both purified. A general note: ELISA stands for enzyme-linked immunosorbent assay.

The target in test [2] is T1, C-terminal His tagged mouse NRP1 (5994-N1, R&D systems) (mouse). As to the kind of experiment: SPR; Pioneer SensiQ; mouse NRP1 immobilised on a PCH chip in 10 mM sodium acetate pH 5.0 (2307 RU for mouse SEMA3A Fc, 1565 RU for human SEMA3A Fc); running buffer 20 mM HEPES pH 7.5, 150 mM NaCl, 0.005% Tween-20; OneStep kinetics, analyte 100 nM mouse SEMA3A Fc or 50 nM human SEMA3A Fc, 75 μl/min; both purified. On the technique in general: Surface plasmon resonance follows binding to a sensor surface in real time, without labels.

Results are given in words; binding and its absence hold for the method and conditions named. Some binding calls cover weakened binding; strength is not graded here. Where a sequence is shown, tags or fusion partners need not be part of it.

B1: recombinant human full length SEMA3A Fc (huSEMA3A, Lys26-Val771) (Fc fusion, UniProt Q14563 26-771)
chain: KNNVPRLKLSYKEMLESNNVITFNGLANSSSYHTFLLDEERSRLYVGAKDHIFSFDLVNIKDFQKIVWPVSYTRRDECKWAGKDILKECANFIKVLKAYNQTHLYACGTGAFHPICTYIEIGHHPEDNIFKLENSHFENGRGKSPYDPKLLTASLLIDGELYSGTAADFMGRDFAIFRTLGHHHPIRTEQHDSRWLNDPKFISAHLISESDNPEDDKVYFFFRENAIDGEHSGKATHARIGQICKNDFGGHRSLVNKWTTFLKARLICSVPGPNGIDTHFDELQDVFLMNFKDPKNPVVYGVFTTSSNIFKGSAVCMYSMSDVRRVFLGPYAHRDGPNYQWVPYQGRVPYPRPGTCPSKTFGGFDSTKDLPDDVITFARSHPAMYNPVFPMNNRPIVIKTDVNYQFTQIVVDRVDAEDGQYDVMFIGTDVGTVLKVVSIPKETWYDLEEVLLEEMTVFREPTAISAMELSTKQQQLYIGSTAGVAQLPLHRCDIYGKACAECCLARDPYCAWDGSACSRYFPTAKRRTRRQDIRNGDPLTHCSDLHHDNHHGHSPEERIIYGVENSSTFLECSPKSQRALVYWQFQRRNEERKEEIRVDDHIIRTDQGLLLRSLQQKDSGNYLCHAVEHGFIQTLLKVTLEVIDTEHLEELLHKDDDGDGSKTKEMSNSMTPSQKVWYRDFMQLINHPNLNTMDEFCEQVWKRDRKQRRQRPGHTPGNSNKWKHLQENKKGRNRRTHEFERAPRSV
As to B1, the binding entry in test [1] and in test [2] was “binds” in each case.
